No constants are given. Whether binding was seen depends on the method and setting. Binding can be weak; no strength is given.
Experiments:
[1] = biological target: recombinant human IGF-1R extracellular domains (R&D Systems) (human) (UniProt P08069); assay: SPR Biacore X, sequential injections
[2] = biological target: recombinant human IGF-1R extracellular domains (R&D Systems) (human) (UniProt P08069); assay: western blot after non-reducing SDS-PAGE
[3] = biological target: recombinant human IGF-1R extracellular domains (R&D Systems) (human) (UniProt P08069); assay: SPR (BIAcore X), 7.4 µg/ml over 439 RU soluble IGF-1R on a CM4 chip, sequential injections
[4] = biological target: recombinant human IGF-1R extracellular domains (R&D Systems) (human) (UniProt P08069); assay: western blot after SDS-PAGE, non reducing conditions, 12B1 as probe

Amino acid sequences for entries named in this document (tags omitted). A change or cut given only in a name is not applied to a line headed by its entry.
UniProt P08069: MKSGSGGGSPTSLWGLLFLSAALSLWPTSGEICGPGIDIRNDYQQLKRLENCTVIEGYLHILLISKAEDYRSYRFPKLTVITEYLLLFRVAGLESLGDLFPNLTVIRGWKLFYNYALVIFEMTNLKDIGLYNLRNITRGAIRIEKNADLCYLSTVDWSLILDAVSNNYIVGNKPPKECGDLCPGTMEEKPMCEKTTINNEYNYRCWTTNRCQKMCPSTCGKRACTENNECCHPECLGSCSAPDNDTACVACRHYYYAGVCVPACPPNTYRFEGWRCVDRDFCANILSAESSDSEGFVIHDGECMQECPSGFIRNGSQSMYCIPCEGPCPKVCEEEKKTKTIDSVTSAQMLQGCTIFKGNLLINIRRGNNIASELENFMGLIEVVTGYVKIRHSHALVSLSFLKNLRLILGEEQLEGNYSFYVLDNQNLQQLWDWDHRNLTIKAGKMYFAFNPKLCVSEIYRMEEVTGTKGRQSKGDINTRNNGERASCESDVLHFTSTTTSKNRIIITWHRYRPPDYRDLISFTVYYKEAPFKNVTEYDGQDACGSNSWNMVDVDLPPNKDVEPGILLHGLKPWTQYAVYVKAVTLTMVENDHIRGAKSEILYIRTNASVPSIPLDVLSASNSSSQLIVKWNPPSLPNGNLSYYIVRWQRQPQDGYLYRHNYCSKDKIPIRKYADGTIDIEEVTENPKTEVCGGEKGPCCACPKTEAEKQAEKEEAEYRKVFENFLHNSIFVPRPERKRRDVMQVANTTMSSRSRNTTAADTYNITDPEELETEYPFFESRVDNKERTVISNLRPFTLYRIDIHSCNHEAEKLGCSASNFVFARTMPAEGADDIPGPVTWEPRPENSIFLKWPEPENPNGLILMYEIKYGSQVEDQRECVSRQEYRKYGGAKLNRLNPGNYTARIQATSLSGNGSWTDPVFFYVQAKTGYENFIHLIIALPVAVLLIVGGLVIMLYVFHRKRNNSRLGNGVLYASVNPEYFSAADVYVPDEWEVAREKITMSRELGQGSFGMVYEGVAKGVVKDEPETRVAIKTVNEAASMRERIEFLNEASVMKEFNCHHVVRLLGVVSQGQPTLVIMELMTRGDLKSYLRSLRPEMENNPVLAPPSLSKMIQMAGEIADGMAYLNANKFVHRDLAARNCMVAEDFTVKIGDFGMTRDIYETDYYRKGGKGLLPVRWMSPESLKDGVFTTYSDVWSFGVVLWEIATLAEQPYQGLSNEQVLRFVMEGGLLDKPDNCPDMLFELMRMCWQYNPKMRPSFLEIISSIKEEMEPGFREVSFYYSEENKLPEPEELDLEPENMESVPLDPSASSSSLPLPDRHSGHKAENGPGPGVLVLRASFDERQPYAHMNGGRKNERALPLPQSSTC

Measured: binding

B1: mouse monoclonal antibody 12B1 (anti-IGF-1R) (antibody, mouse IgG1, V domains shown)
VH: QVQLKESGPDLVAPSQSLSITCTVSGFSLTNYGVHWVRQFPGKGLEWLGVIWAGGNTNYNSALMSRLTISKDNSKSQVFLKMNSLQTDDTAVYYCAREYGSTYVAWFAHWGQGTLVTVSS
VL: ENVLTQSPAIMSASPGEKVTMTCGASSSVSSSFLHWYQQKSGASPKLWIYSTSNLASGVPTRFSGSGSGTSYSLTISSVEAEDAATYYCQQYSGYPLTFGAGTKLELK
notes: also called MAb 12B1; clone 12B1
binds: all assays above

Source: patent US20150078996A1 (Merck Sharp & Dohme, published 2015)
